The text below walks through data of patent US20200190172A1, “METHOD FOR DIAGNOSING/DETERMINING THE EFFECTIVENESS OF TREATMENT FOR DEPRESSION” (Centre National De La Recherche Scientifique, priority 2016, published 2020).

This data set concerns anti-spadin antibodies (AB1 polyclonal antibody). Description: AlphaLISA competition assay: biotinylated spadin / anti-spadin antibody displaced by peptides. Type of data set: binding, rabbit. To be noted: range of values of detection in the AlphaLISA assay. A general note: In Alpha technology, singlet oxygen from a donor bead excites a nearby acceptor bead.

Consider “APLPRWSGPIGVSWGL [12-27 PE, peptide fragment 12 to 27 of the propeptide]”, for which the “Detectable quantity” value was in the range of 1.5 to 400 ng/mL.

As for APLPRWSGPIGVSWGLR [spadin], the “Detectable quantity” value was in the range of 1.5 to 400 ng/mL. With “GVSWGLR [22-28 PE, peptide fragment 22 to 28 of the propeptide]”, the “Detectable quantity (ng/mL)” value was “Not detectable”. Consider “LPRWSGPIGVSW [14-25 PE, peptide fragment 14 to 25 of the propeptide]”, for which the “Detectable quantity” value lay in the range of 0.8 to 300 ng/mL. Turning to “QDRLDAPPPPAAPLPR [1-16 PE, peptide fragment 1 to 16 of the propeptide]”, the “Detectable quantity (ng/mL)” value was “not detectable”.
